In all, about 71,000 compounds went through this assay and about 310 (0.44%) were called active. Inconclusive means that the source gave no clear call. Such entries were picked first, then a sample of the others. Calls follow the shape of the dose curve; as a rule, active = well fitted curve in either direction with a large enough effect; inconclusive = small, poorly fitted or top-dose-only effect, or another doubt; inactive = flat fitted curve, though single readings scatter. Where the call is inconclusive, the potency comes from a doubtful curve fit.
test system: Hsp90 C-terminal peptide / TPR2A (Hop) interaction, human; test: qHTS Assay for Disrupters of an Hsp90 Co-Chaperone Interaction; details: AlphaScreen TPR2A-His6 binding biotin-Hsp90 C-terminal peptide; activity change, negative = inhibition: at 57 µM (top of the series) unless noted
% is scaled to controls: 0 for no effect and ±100 for the full control effect; potency is read from the fitted curve at half-maximal effect.

SMILES	Potency	activity change, negative = inhibition
Cc1cccc(C(=O)Nc2ccccc2C(=O)OCc2c(C)noc2C)c1	inconclusive: 25.1 µM [activator, single point]	
O=C(NCc1ccc(Cl)c(Cl)c1)c1ccco1		inconclusive: 47.6% [at 11 µM]
O=C(Oc1ccc2c(c1)OCO2)c1ccc(F)cc1Cl		inconclusive: 94.7%
Cc1cnc(CNc2ncnc3ccc(-c4ccc(C(=O)N(C)C)cc4)cc23)cn1		inactive: 1.36%
O=C(Nc1cccc(NC(=O)c2cccs2)c1)c1ccco1		inactive: -4.5%
C[C@@]12CC[C@H]3[C@@H](CCC4=CC(=O)CC[C@]43C)[C@H]1CC[C@H]2C(=O)CO		inconclusive: 58.2% [at 26 µM]
Oc1ccc(N2CCN(C(c3cccs3)c3nnnn3CCc3ccccc3)CC2)cc1 (stereo not drawn)	inconclusive: 25.1 µM [inhibitor, partial curve]	
NCC(=O)N[C@H](CO)C(=O)O		inactive: 1.01% [at 11 µM]
Cc1cc(NC(=O)CSc2nc3cc4c(cc3c(=O)n2CCc2ccccc2)OCO4)no1		inconclusive: 44.2%
CCOc1ccc2noc3c2c1C(=O)c1ccccc1-3	inconclusive: 20 µM [inhibitor, partial curve]	
O=C(c1csnn1)N1CCC2(CC1)CN(c1cccc(-c3ccccc3)c1)C2	inconclusive: 25.1 µM [inhibitor, partial curve]	
Cc1cc(=O)[nH]c(Cc2ccc(OC(C)C)cc2)n1		inconclusive: 45.5%
O=c1oc2ccccc2c(O)c1C=NCc1ccccn1	inconclusive: 25.1 µM [inhibitor, partial curve]	
O=C(CNC(=O)C12CC3CC(CC(C3)C1)C2)NC1=NCCS1		inconclusive: 48.4%
COC(=O)c1ccccc1NC(=O)COC(=O)c1ccco1		inactive: -4.05%
COCCOC(=O)c1c(C)oc2ccc(OC(=O)c3ccc4c(c3)OCO4)cc12		inconclusive: 53.3%
Cc1csc(NC(=O)CSCC(=O)Nc2ccccc2)n1		inactive: 1.72%
Cn1c(=O)[nH]c(=O)c2c1nc(SCC(=O)O)n2CCc1ccccc1		inactive: -2.37%
CCOC(=O)C(Oc1ccc(=O)n(-c2ccccc2)n1)C(C)=O (stereo not drawn)		inconclusive: 56.3% [at 11 µM]
O=C(NCCN1C(=O)C2C3C=CC(C3)C2C1=O)Nc1ccc(Br)cc1 (stereo not drawn)		inactive: -1.71% [at 2.3 µM]
O=C(CC(=O)Nc1ccccn1)Nc1ccccn1		inactive: -2.73%
COc1ccc2nc(N3CCC(C)CC3)c(C#N)cc2c1	active: 25.1 µM [activator]	
O=C(Nc1ccc(N2CCOCC2)cc1)C1(S(=O)(=O)c2ccccc2)CC1		inconclusive: 35.7%

A second format for two compounds above.
O=C(Oc1ccc2c(c1)OCO2)c1ccc(F)cc1Cl
  activity change, negative = inhibition: inconclusive: 94.7%
Cc1cnc(CNc2ncnc3ccc(-c4ccc(C(=O)N(C)C)cc4)cc23)cn1
  activity change, negative = inhibition: inactive: 1.36%

Source: PubChem BioAssay AID595 (National Center for Advancing Translational Sciences (NCATS), 2007)
